# Measured values reported in the supplement of paper PMC5770031.
# Where “and” joins values, the source holds several entries; their conditions need not be identical. Equal values may be shown once. This is one part of the list. Single values are uncertain here, since repeats match poorly.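 ATM8/balancer (normal ATM) heterozygous flies were crossed on treated food; parents laid eggs 5–6 days, offspring developed ~12 days, so parents and larvae ingested compound. Readout: fraction of emerged adults homozygous for ATM8 versus 2% DMSO controls. Compounds were neutral at 10–20% homozygotes, harmful below 10%, helpful above 20%.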
# System: Drosophila melanogaster ATM8 (temperature-sensitive ATM allele)
# Assay: fraction of eclosed F1 progeny that are homozygous ATM8 (rescue of developmental lethality); higher = more rescue of ATM8 developmental lethality; extreme values may be limits of the assay
# Conditions: compound concentration applied to food 0.2 mM; 21 °C
row,SMILES,fraction of eclosed F1 progeny that are homozygous ATM8
1,CC(=O)c1ccc(S(=O)(=O)NC(=O)NC2CCCCC2)cc1,0.0244
2,O=C(NCc1ccccc1)OCCO,0.0676
3,OC[C@H]1O[C@H]([S-])[C@H](O)[C@@H](O)[C@@H]1O.[Au+],0.229
4,CCC1(CC)C(=O)C=CNC1=O,0.148
5,Cc1nc2ccccc2n1Cc1ccc(Cl)cc1,0.111
6,Cc1cc(=O)oc2cc(O)ccc12,0.205
7,CN(C)CCN(Cc1cccs1)c1ccccn1,0.041
8,NC(CO)(CO)CO,0.156
9,COc1ccc([C@H]2COc3c(ccc(O)c3OC)C2)c(OC)c1O,0.117
10,COc1ccc2c(c1)OCc1c-2oc2cc(OC)ccc12,0.0385
11,NCCC[C@H](N)C(=O)O,0.147
12,NC(=O)N1c2ccccc2C=Cc2ccccc21,0.0857
13,O=C(NC(=O)c1c(F)cccc1F)Nc1cc(Cl)c(OC(F)(F)C(F)C(F)(F)F)cc1Cl (stereo not given),0.355
14,CNCC(=O)c1ccc(O)c(O)c1,0.2
15,CCOc1cccc(C(=O)c2ccc(O)c(O)c2O)c1,0.037
16,COc1cc2c(cc1OC)[C@H](C)NCC2,0.138
17,CC(=O)OCC(COC(C)=O)OC(C)=O,0.13
18,CC(C)(C)NCC(O)c1cc(Cl)c(N)c(Cl)c1 (stereo not given),0.245
19,C[C@H](N)Cc1ccccc1,0.157
20,COc1cc2c(cc1OC)[C@@]13CCN4CC5=CCO[C@H]6CC(=O)N2[C@H]1[C@H]6[C@H]5C[C@H]43,0.147
21,COc1cc2ccc(=O)oc2c(OC)c1OC,0.195
22,O=C1CN2Cc3c(ccc(Cl)c3Cl)N=C2N1,0.0213
23,C#CCCCCCCCCCCCC(O)CC(O)CO (stereo not given),0.133
24,Nc1nc(=S)c2ncn([C@@H]3O[C@H](CO)[C@@H](O)[C@H]3O)c2[nH]1,0.0517
25,C=C(C)[C@H]1Cc2c(ccc3c2O[C@@H]2COc4cc(OC)c(OC)cc4[C@@H]2C3=O)O1,0.25

# An excerpt of these results, tab-delimited.
row	SMILES	fraction of eclosed F1 progeny that are homozygous ATM8
11	NCCC[C@H](N)C(=O)O	0.147
12	NC(=O)N1c2ccccc2C=Cc2ccccc21	0.0857
13	O=C(NC(=O)c1c(F)cccc1F)Nc1cc(Cl)c(OC(F)(F)C(F)C(F)(F)F)cc1Cl (stereo not given)	0.355
14	CNCC(=O)c1ccc(O)c(O)c1	0.2
15	CCOc1cccc(C(=O)c2ccc(O)c(O)c2O)c1	0.037
16	COc1cc2c(cc1OC)[C@H](C)NCC2	0.138
17	CC(=O)OCC(COC(C)=O)OC(C)=O	0.13

# Next results:

row,SMILES,fraction of eclosed F1 progeny that are homozygous ATM8
1,CC(C)NCC(O)COc1ccc(COCCOC(C)C)cc1 (stereo not given),0.185
2,COc1c2ccoc2nc2c(OC)c(OCC(O)C(C)(C)O)ccc12 (stereo not given),0.353
3,Nc1nc(=O)c2nc(CNc3ccc(C(=O)N[C@@H](CCC(=O)O)C(=O)O)cc3)cnc2[nH]1,0.115
4,CC(=O)N[C@@H](CC(C)C)C(=O)O,0.0889
5,O=C([O-])[C@H]1/C(=C/CO)O[C@@H]2CC(=O)N21.[Li+],0.205
6,Nc1ccc2cc3ccc(N)cc3nc2c1,0.08
7,C[C@H](CCC(=O)O)[C@H]1CC[C@H]2[C@@H]3CC[C@@H]4C[C@H](O)CC[C@]4(C)[C@H]3C[C@H](O)[C@]12C,0.114
8,CCC1(c2ccc(N)cc2)CCC(=O)NC1=O (stereo not given),0
9,COc1ccc2cc(C(C)C(=O)O)ccc2c1 (stereo not given),0.0536
10,Cc1cc(CC(=O)O)n(C)c1C(=O)c1ccc(Cl)cc1,0.132
11,COC(=O)CC[C@@H](C)[C@H]1CC[C@H]2[C@@H]3[C@H](O)C[C@@H]4C[C@H](O)CC[C@]4(C)[C@H]3C[C@H](O)[C@]12C,0.0811
12,COc1c(O)cccc1O,0.233
13,CC(=O)Nc1ncc([N+](=O)[O-])s1,0
14,CC12CCC(CC1)C(C)(C)O2,0.17
15,CC(=O)O[C@@H]1CC2C(C)(C)C(=O)C3OC3[C@]2(C)C2CC[C@@]3(C)[C@H](c4ccoc4)OC(=O)C4OC43[C@@]21C (stereo not given in full),0.111
16,CCN(C)C(=O)Oc1cccc([C@H](C)N(C)C)c1,0.0541
17,Nc1ccc(S(=O)(=O)Nc2ccnn2-c2ccccc2)cc1,0.152
18,CO/N=C(\C(=O)N[C@@H]1C(=O)N2C(C(=O)O)=C(COC(N)=O)CS[C@H]12)c1ccco1,0.15
19,O=C(NCC(O)CO)c1c(I)c(C(=O)NCC(O)CO)c(I)c(N(CCO)C(=O)CO)c1I (stereo not given),0.0492
20,FC(F)(Cl)C(F)(F)Cl,0.444
21,CC1Cc2ccccc2N1NC(=O)c1ccc(Cl)c(S(N)(=O)=O)c1 (stereo not given),0.1
22,CN(C)C(=O)Oc1cc(OC(=O)N(C)C)cc(C(O)CNC(C)(C)C)c1 (stereo not given),0.119
23,NCCc1ccc(O)cc1,0.342
24,CCC(C(=O)O)c1ccccc1 (stereo not given),0.159
25,CC(=O)OC1C[C@]2(C)CC[C@H]1C2(C)C (stereo not given in full),0.204

row,SMILES,fraction of eclosed F1 progeny that are homozygous ATM8
1,O=c1cc[nH]c(=S)[nH]1,0.182
2,CC[C@@H](c1cccc(O)c1)[C@@H](C)CN(C)C,0.129
3,CCn1cc(C(=O)O)c(=O)c2cc3c(cc21)OCO3,0.114
4,CC1(C)CC[C@]2(C(=O)O)CC[C@]3(C)C(=CC[C@@H]4[C@@]5(C)CC[C@H](O)[C@@](C)(CO)[C@@H]5CC[C@]43C)[C@@H]2C1,0.143
5,CNC(C)C1CCC(N)C(OC2C(N)CC(N)C(OC3OCC(C)(O)C(NC)C3O)C2O)O1 (stereo not given),0.0244
6,C[C@]12CC[C@H](O)C[C@@H]1CC[C@@H]1[C@@H]2CC[C@]2(C)C(=O)CC[C@@H]12,0.039
7,O=c1cc(-c2cccc(O)c2)oc2cc(O)ccc12,0.35
8,CC(C)/C(O)=C1/C(=O)O[C@@H](c2ccoc2)[C@]2(C)C(O)[C@@H](O)[C@@]34OC5(C)OC67CC(C)(C(O)[C@]6(O)[C@@H](O)[C@]3(O5)C12)[C@H](CC(=O)O)[C@]74C (stereo not given in full),0.11
9,CC[C@H]1OC(=O)[C@H](C)[C@@H](O[C@H]2C[C@@](C)(OC)[C@@H](O)[C@H](C)O2)[C@H](C)[C@@H](O[C@@H]2O[C@H](C)C[C@H](N(C)C)[C@H]2O)[C@](C)(O)C[C@@H](C)[C@@H]2N[C@@H](COCCOC)O[C@H]([C@H]2C)[C@]1(C)O,0.318
10,O=C1CC2(CCCC2)CC(=O)N1CCCCN1CCN(c2ncccn2)CC1,0.167
11,CCn1nc(C(=O)O)c(=O)c2cc3c(cc21)OCO3,0.107
12,O=C(O)C(S)C(S)C(=O)O (stereo not given),0.0714
13,Cc1cc(/C=C/c2ccc3cc(N(C)C)ccc3[n+]2C)c(C)n1-c1ccccc1,0.2
14,O=c1c(-c2ccc(O)cc2)coc2c([C@@H]3O[C@H](CO)[C@@H](O)[C@H](O)[C@H]3O)c(O)ccc12,0.0341
15,C[N+]1([O-])[C@@H]2CC[C@H]1C[C@@H](OC(=O)C(CO)c1ccccc1)C2 (stereo not given in full),0.125
16,CC(C)(Oc1ccc(C(=O)c2ccc(Cl)cc2)cc1)C(=O)O,0.2
17,CCCCNc1ccc(C(=O)OCCOCCOCCOCCOCCOCCOCCOCCOCCOC)cc1,0.156
18,CC(C)=CCC/C(C)=C/CC/C(C)=C/CC/C(C)=C/CC/C(C)=C/CC/C(C)=C/CC/C(C)=C/CC/C(C)=C/CC/C(C)=C/CO,0.213
19,O=S1(=O)OC(c2ccc(O)cc2)(c2ccc(O)cc2)c2ccccc21,0.156
20,O=C(O[C@@H]1Cc2c(O)cc(O)cc2O[C@@H]1c1cc(O)c(=O)c2c(O)c(O)cc([C@H]3Oc4cc(O)cc(O)c4C[C@H]3O)c2c1)c1cc(O)c(O)c(O)c1,0.286
21,COC(=O)CC[C@@H](C)[C@H]1CC[C@H]2[C@@H]3CC[C@@H]4C[C@H](O)CC[C@]4(C)[C@H]3C[C@H](O)[C@]12C,0.0811
22,CC(=O)OCC(=O)[C@@]1(O)CC[C@H]2[C@@H]3CC[C@@H]4C[C@H](O)CC[C@]4(C)[C@H]3C(=O)C[C@@]21C,0.257
23,[N-]=[N+]=CC(=O)OC[C@H](N)C(=O)O,0.245
24,Oc1ccc(OCc2ccccc2)cc1,0.0933
25,CC1(C)C(=O)C=C[C@@]2(C)C1CC(=O)[C@@]1(C)C3=CC(=O)O[C@@H](c4ccoc4)[C@]3(C)CCC12 (stereo not given in full),0.103

row,SMILES,fraction of eclosed F1 progeny that are homozygous ATM8
1,CC(C)C1=CC2=CC[C@@H]3[C@](C)(CCC[C@@]3(C)C(=O)O)[C@H]2CC1,0.0449
2,N=C1NC(=O)N2CC12 (stereo not given),0.0577
3,C[C@H]1C[C@H]2[C@@H]3CCC4=CC(=O)C=C[C@]4(C)[C@@]3(F)[C@@H](O)C[C@]2(C)[C@@]1(O)C(=O)CO,0.0488
4,CN(C)CCOc1ccc(/C(=C(/CCCl)c2ccccc2)c2ccccc2)cc1,0.228
5,CCN1CCN(C(=O)N[C@@H](C(=O)N[C@@H]2C(=O)N3C(C(=O)O)=C(CSc4nnnn4C)CS[C@H]23)c2ccc(O)cc2)C(=O)C1=O,0.0938
6,Cc1ccc(Cl)c(Nc2ccccc2C(=O)O)c1Cl,0.167
7,O=C(NCCO[N+](=O)[O-])c1cccnc1,0.0952
8,CC1=Nc2ccc(Cl)cc2S(=O)(=O)N1,0.0909
9,C1CCN2C[C@@H]3C[C@@H](CN4CCCC[C@@H]34)[C@H]2C1,0.111
10,CCCCCCCC/C=C/CCCCCCCCOP(=O)([O-])OCC[N+](C)(C)C,0.0638
11,CC(=O)OCC(OC(C)=O)C(OC(C)=O)C(OC(C)=O)C(OC(C)=O)C(COC(C)=O)OC(C)=O (stereo not given),0.364
12,Cc1nnc(NS(=O)(=O)c2ccc(N)cc2)s1,0.147
13,O=C1C2CC3CC1CC(O)(C3)C2,0.093
14,COc1cc(NS(C)(=O)=O)ccc1Nc1c2ccccc2nc2ccccc12,0.0702
15,C[C@@H]1C[C@H]2[C@@H]3CCC4=CC(=O)C=C[C@]4(C)[C@@]3(F)[C@@H](O)C[C@]2(C)[C@@]1(O)C(=O)CO,0
16,O=C(O)CCCc1ccccc1,0.0656 and 0.146
17,Cc1cnc(NC(=O)C2=C(O)c3ccccc3S(=O)(=O)N2C)s1,0.143
18,COc1ccc2c3c([nH]c2c1)C(C)=NCC3,0.0667
19,CC1(C)O[C@@H]2C[C@H]3[C@@H]4CCC5=CC(=O)C=C[C@]5(C)[C@@]4(F)[C@@H](O)C[C@]3(C)[C@]2(C(=O)CO)O1,0.111
20,NC1=NCCN1CC(=O)O,0
21,CN1CCN(CCCN2c3ccccc3Sc3ccc(Cl)cc32)CC1,0.25
22,CC(=O)Oc1cc(OC(C)=O)c2c(c1)O[C@H](c1ccc(OC(C)=O)c(OC(C)=O)c1)[C@H](OC(C)=O)C2,0.116
23,COc1ccc(O)c(C(C)(C)C)c1.COc1ccc(O)cc1C(C)(C)C,0.0946
24,CC(=O)O[C@H]1CC[C@@]2(C)[C@@H](CC[C@@H]3[C@@H]2CC(=O)[C@]2(C)[C@@H]4[C@H](C[C@@H]32)O[C@]2(CC[C@@H](C)CO2)[C@H]4C)C1,0.311
25,COC(=O)/C=C/C(C)=C\C=C\C(C)=C\C=C\C=C(C)\C=C\C=C(C)\C=C\C(=O)O,0.113

# Three structures already listed, sorted by SMILES length, descending.
row,SMILES,fraction of eclosed F1 progeny that are homozygous ATM8
24,CC(=O)O[C@H]1CC[C@@]2(C)[C@@H](CC[C@@H]3[C@@H]2CC(=O)[C@]2(C)[C@@H]4[C@H](C[C@@H]32)O[C@]2(CC[C@@H](C)CO2)[C@H]4C)C1,0.311
7,C[C@H](CCC(=O)O)[C@H]1CC[C@H]2[C@@H]3CC[C@@H]4C[C@H](O)CC[C@]4(C)[C@H]3C[C@H](O)[C@]12C,0.114
11,CCn1nc(C(=O)O)c(=O)c2cc3c(cc21)OCO3,0.107
